Measurements taken from US6201015A, “Therapeutic method for thrombocytopathy treatment” (priority 1996, dated 2001).
Some of these results come from one statement about several compounds together.

System: platelets (platelet rich plasma)
Assay: Action on Platelet Aggregation (3): ADP-induced platelet aggregation in the presence of SQ-29548
Type: cell-based, human (healthy subject)
Conditions: 0.1 to 10 μM
Method: A blood specimen taken from a healthy subject was centrifuged to thereby separate platelet rich plasma (PRP) and platelet poor plasma (PPP). To PRP was added SQ-29548, a TXA2 antagonist, and 1 minute after, platelet aggregation was induced by ADP, and immediately after induction, any of Compounds 2 to 4 having the following structural formulae was added to PRP. The experiment was performed on one group comprising three subjects. The results are set forth in Table 6 (*: P<0.05, Paired t-test).
Compound 2 to 4 were respectively used at a concentration within the range of 0.1 to 10 μM.

SMILES | effect on aggregation of platelets (in words)
CCCCC(C)(C)[C@H](O)/C=C/[C@@H]1[C@H]2c3cccc(CCC(=O)O)c3O[C@H]2C[C@H]1O (relative stereo) [Compound 2] | enhanced aggregation of platelets
CC(C)(Oc1ccccc1)[C@H](O)/C=C/[C@@H]1[C@H]2c3cccc(CCC(=O)O)c3O[C@H]2C[C@H]1O (relative stereo) [Compound 4] | enhanced aggregation of platelets
O=C(O)CCc1cccc2c1OC1CC(O)C(C=CC(O)COc3ccccc3)C21 (stereo not drawn) [Compound 3] | enhanced aggregation of platelets
